Where a name gives a salt, the structure may show the parent alone. This is one part of the list. Hit calls seldom repeat between salt and free forms of one compound.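 In K562 cells expressing nanoluciferase-fused kinases, luminescence was recorded at 4 h intervals between 2 and 18 h, normalized as percent of control with DMSO at 100% and a positive control at 0%. A significant (2 sigma) signal drop marks a time point as decreased. The authors' rule for a hit is not shown and takes in more than the number of time points.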
Each compound was assayed against CSK (UniProt P41240) (assay: kinase-Nluc reporter destabilization hit call (1 = scored as downregulated) (binary); higher = compound decreases kinase abundance). Conditions: K562; 2-18 h.

Protein sequences, listed by entry. Tags and fused reporters are not part of them. Lines headed by an entry give the natural chain unless they say otherwise; changes in a name come on top.
UniProt P41240: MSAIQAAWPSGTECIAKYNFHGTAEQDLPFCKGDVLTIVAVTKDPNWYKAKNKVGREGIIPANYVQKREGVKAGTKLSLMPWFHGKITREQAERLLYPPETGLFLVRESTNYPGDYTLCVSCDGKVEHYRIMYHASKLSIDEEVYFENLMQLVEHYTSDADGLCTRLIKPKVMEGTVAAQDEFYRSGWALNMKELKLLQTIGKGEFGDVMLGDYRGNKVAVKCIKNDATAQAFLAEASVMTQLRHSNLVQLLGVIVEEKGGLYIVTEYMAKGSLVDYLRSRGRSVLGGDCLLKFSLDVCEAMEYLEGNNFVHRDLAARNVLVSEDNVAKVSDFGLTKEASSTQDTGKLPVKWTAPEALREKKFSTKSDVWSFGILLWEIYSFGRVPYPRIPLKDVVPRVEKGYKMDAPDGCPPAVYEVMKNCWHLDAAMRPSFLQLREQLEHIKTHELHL

kinase-Nluc reporter destabilization hit call, inactive:
CC(C)(C)n1nc(Cc2cccc3ccccc23)c2c(N)ncnc21 (10 µM) 0
CC1(C)CC=C(c2nc(C3CC(C)(C)OC(C)(C)C3)ccc2NC(=O)c2nc(C#N)c[nH]2)CC1 [Edicotinib] (2.5 µM) 0
CC(C)CC(=O)Nc1n[nH]c2c1CN(C(=O)C1CCN(C)CC1)C2(C)C (2.5 µM) 0
Nc1ncnc2c1c(-c1ccc(Oc3ccccc3)cc1)cn2C1CCCC1 (2.5 µM) 0
CC(=O)NCC(=O)N1[C@@H]2CC[C@H]1c1ccc(Nc3ncc(C(F)(F)F)c(NC4CCC4)n3)cc12 (2.5 µM) 0
Cc1nc(-c2cnc(NC(C)C)n(C)c2=O)ccc1Oc1ccnc(-c2cnn(C)c2)c1 (2.5 µM) 0
CN(C)C(=O)/C(C#N)=C/c1ccc(-c2nc3cnc4[nH]ccc4c3n2C2CCCCC2)o1 (10 µM) 0
CCCS(=O)(=O)Nc1ccc(F)c(C(=O)c2c[nH]c3ncc(Cl)cc23)c1F (10 µM) 0
COc1ccc2c(NC(=O)Nc3cccc(C(F)(F)F)n3)ccnc2c1 (10 µM) 0
CNC(=O)c1cccc(-c2ccc3c(N4CCOC[C@@H]4C)nc(N4CCOC[C@@H]4C)nc3n2)c1 [Vistusertib] (2.5 µM) 0
COCCNCCc1cccc(Nc2ncc3c(n2)-c2ccccc2[C@H](c2ccccc2F)C3)c1 [Derazantinib] (2.5 µM) 0
CNC(=O)c1ccccc1Nc1nc(Nc2ccc(N3CCOCC3)cc2OC)ncc1Cl (2.5 µM) 0
Cc1c(C(=O)N2CCOc3ccc(-c4ccc(N)nc4)cc3C2)ccc(S(C)(=O)=O)c1F (10 µM) 0
Cc1ccc(NC(=O)Nc2nnc(Sc3ncnc4cc(OCCCN5CCOCC5)ccc34)s2)cc1 (10 µM) 0
N#CC(=Cc1ccc(O)c(O)c1)C(=O)NCc1ccccc1 (mixture of isomers) (10 µM) 0
COc1ccc(COc2ccc(Cc3cnc(N)nc3N)cc2OC)cc1 (10 µM) 0
CC(=O)N1CCN(c2ccc(OCC3COC(Cn4ccnc4)(c4ccc(Cl)cc4Cl)O3)cc2)CC1 (centres undefined) [Ketoconazole] (2.5 µM) 0
Cc1ccc(F)c(NC(=O)Nc2ccc(-c3cccc4[nH]nc(N)c34)cc2)c1 [Linifanib] (2.5 µM) 0
NC(=O)c1ccc2nc(-c3ccc(Oc4ccc(Cl)cc4)cc3)[nH]c2c1 (10 µM) 0
CNc1nc(-c2ccc3c(N)n[nH]c3c2)cc(N2C[C@@H](C(=O)NC3CCCCC3)CC[C@H]2C)n1 (10 µM) 0
Cc1nc(N)sc1-c1ccnc(Nc2ccc(N3CCOCC3)cc2)n1 (10 µM) 0
O=c1oc2ccccc2c(O)c1Cc1c(O)c2ccccc2oc1=O [Dicoumarol] (10 µM) 0
CCc1nc(-c2cccc(C)c2)c(-c2ccnc(NC(=O)c3ccccc3)c2)s1 (10 µM) 0
CC(C)(C)c1cc(NC(=O)Nc2ccc(-c3cn4c(n3)sc3cc(OCCN5CCOCC5)ccc34)cc2)no1 [Quizartinib] (10 µM) 0
O=S(=O)(NCCNC/C=C/c1ccc(Br)cc1)c1cccc2cnccc12 [H-89 (dihydrochloride)] (10 µM) 0
COc1cc2ncn(-c3cc(OCc4ccccc4C(F)(F)F)c(C(N)=O)s3)c2cc1OC (10 µM) 0
CCn1cc(-c2ccnc3[nH]c(-c4cccc(CN(C)C)c4)cc23)c(-c2ccc(NC(=O)N(C)C)cc2)n1 (2.5 µM) 0
O=C1c2ccccc2-c2n[nH]c3cccc1c23 (10 µM) 0
C[C@]1(O)C[C@@H](c2nc(-c3ccc4ccc(-c5ccccc5)nc4c3)c3c(N)nccn32)C1 [Linsitinib] (2.5 µM) 0
C[C@H](CN(C)C)Oc1nc(Nc2cc3cccc(Cl)c3cn2)cnc1C#N (10 µM) 0
Cc1cc(C)c(/C=C2\C(=O)Nc3ccccc32)[nH]1 [Semaxinib] (10 µM) 0
Cc1cccc(Cn2nc(C3CC3)c3c(NC(=O)c4cnc5cc(OCCN6CCN(C)CC6)ccn45)cccc32)n1 (10 µM) 0
COc1cc(OC)cc(-c2cc3cnc(N)nc3nc2NC(=O)NC(C)(C)C)c1 (10 µM) 0
CN(c1ncccc1CNc1nc(Nc2ccc3c(c2)CC(=O)N3)ncc1C(F)(F)F)S(C)(=O)=O (2.5 µM) 0
Oc1ccc(-c2nc(-c3ccc(F)cc3)c(-c3ccncc3)[nH]2)cc1 (2.5 µM) 0
COc1cc(Nc2ncc3c(n2)-c2ccc(Cl)cc2C(c2c(F)cccc2OC)=NC3)ccc1C(=O)O [Alisertib] (2.5 µM) 0
O=c1c(-c2ccc(O)cc2)coc2cc(O)cc(O)c12 [Genistein] (10 µM) 0
CN1CCN(c2ccc(C(=O)Nc3n[nH]c4ccc(Cc5cc(F)cc(F)c5)cc34)c(NC3CCOCC3)c2)CC1 [Entrectinib] (2.5 µM) 0
CCN1CCN(Cc2ccc(C(=O)Nc3ccc(C)c(Oc4ccc5c(c4)CC(=O)N5)c3)cc2C(F)(F)F)CC1 (2.5 µM) 0

A draw from above in order of SMILES length, largest number first.
kinase-Nluc reporter destabilization hit call, inactive:
CCN1CCN(Cc2ccc(C(=O)Nc3ccc(C)c(Oc4ccc5c(c4)CC(=O)N5)c3)cc2C(F)(F)F)CC1 (2.5 µM) 0
Cc1ccc(NC(=O)Nc2nnc(Sc3ncnc4cc(OCCCN5CCOCC5)ccc34)s2)cc1 (10 µM) 0
NC(=O)c1ccc2nc(-c3ccc(Oc4ccc(Cl)cc4)cc3)[nH]c2c1 (10 µM) 0
